The numbers were not newly measured in PMC10623564, “Ruthenium-Based Photoactivated Chemotherapy” (Journal of the American Chemical Society, 2023), which cites them from elsewhere.

SMILES strings stand for the structures.

Take `Oc1cccc(-c2cccc(O)n2)n1.[Ru+2].c1ccc(-c2ccccn2)nc1.c1ccc(-c2ccccn2)nc1` [3^2+, [Ru(bpy)2(6,6′-dOHbpy)]^2+]: the “photoreactivity at pH 7.5” value (pH 7.5, phenol groups deprotonated) is “photostable”.

`CC(=O)C=C(C)[O][Ru+].c1ccc(-c2ccccn2)nc1.c1ccc(-c2ccccn2)nc1` [[Ru(bpy)2(acac)]^+, reference compound]: the photosubstitution observed result (NIR light activated, works via a PDT mechanism) is listed as “no reported sign of photosubstitution”.
